From PMC11578379
Construct, isoform or probe ends are uncertain for at least one entry. For part of these data: Negatives hold for the conditions tested. For part of these data: Tags and fusion partners may be left off the protein sequences shown. For part of these data: A weaker result is weaker than the reference pair of the same experiment. For part of these data: At least one verdict rests on a figure or table, not on a statement of the authors.

Assays:
Experiment in all cases: EMSA
[1] = biological target: T1, FtMADS1 (Fagopyrum tataricum) (UniProt A0A9E8G182); conditions: LightShift Chemiluminescent EMSA Kit (Thermo), manufacturer's instructions, 5' biotinylated probes, pH and temperature not stated, recombinant protein, protein details: GST (FtMADS1-GST, pGEX-4T-1 per pull-down Methods)
T1 sequence (looked up, limits assumed): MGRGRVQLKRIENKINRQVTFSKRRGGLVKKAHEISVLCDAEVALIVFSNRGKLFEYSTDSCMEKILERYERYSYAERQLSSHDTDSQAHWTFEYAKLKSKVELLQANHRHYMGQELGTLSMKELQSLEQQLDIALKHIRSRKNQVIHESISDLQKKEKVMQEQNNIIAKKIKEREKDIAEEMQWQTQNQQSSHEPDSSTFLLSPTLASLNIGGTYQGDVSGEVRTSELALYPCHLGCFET

[2] = system: FtMADS2 (Fagopyrum tataricum); conditions: LightShift Chemiluminescent EMSA Kit (Thermo), manufacturer's instructions; 5' biotinylated probes; pH and temperature not stated; recombinant protein; protein details: GST (FtMADS2-GST, pGEX-4T-1 per pull-down Methods); label: 5' biotin
[3] = system: FtMADS1 + FtMADS2 + FtPAK; conditions: ATP, FtMADS1, FtMADS2 and FtPAK co-incubated, DNA-bound component not established; LightShift Chemiluminescent EMSA Kit (Thermo), manufacturer's instructions; 5' biotinylated probes; pH and temperature not stated; recombinant protein; label: 5' biotin

Sequence | binding result ([1]; FtMADS2 present, label: 5' biotin) | binding result ([1]; label: 5' biotin) | binding result [2] | binding result [3] | binding result [1]
TAGTTCTAAAAAGGAAATTATAGTTCTAAAAAGGAAATTATAGTTCTAAAAAGGAAATTATAGTTCTAAAAAGGAAATTATAGTTCTAAAAAGGAAATTA (double strand) [5×BOX2] | no binding | binds | no binding | binds | –
TAGTTCTAAAAATTCCCTTATAGTTCTAAAAATTCCCTTATAGTTCTAAAAATTCCCTTATAGTTCTAAAAATTCCCTTATAGTTCTAAAAATTCCCTTA (double strand) [mut 5×BOX2] | – | – | – | – | binds more weakly
AAATCCATATAAAGATTTAAATCCATATAAAGATTTAAATCCATATAAAGATTTAAATCCATATAAAGATTTAAATCCATATAAAGATTT (double strand) [5×BOX1] | – | no binding | – | – | –
